Results reported in article doi:10.1101/2021.09.16.460581.
No constants are given. Whether binding was seen depends on the method and setting. Binding seen in cells or lysates may run through a third protein. These calls come from enrichment with a bait or labelling near it, and not all partners need be listed. Tags and fused reporters may be left off the sequences shown.

Chains of the proteins cited; added tags and fusions are not shown.
UniProt P22202: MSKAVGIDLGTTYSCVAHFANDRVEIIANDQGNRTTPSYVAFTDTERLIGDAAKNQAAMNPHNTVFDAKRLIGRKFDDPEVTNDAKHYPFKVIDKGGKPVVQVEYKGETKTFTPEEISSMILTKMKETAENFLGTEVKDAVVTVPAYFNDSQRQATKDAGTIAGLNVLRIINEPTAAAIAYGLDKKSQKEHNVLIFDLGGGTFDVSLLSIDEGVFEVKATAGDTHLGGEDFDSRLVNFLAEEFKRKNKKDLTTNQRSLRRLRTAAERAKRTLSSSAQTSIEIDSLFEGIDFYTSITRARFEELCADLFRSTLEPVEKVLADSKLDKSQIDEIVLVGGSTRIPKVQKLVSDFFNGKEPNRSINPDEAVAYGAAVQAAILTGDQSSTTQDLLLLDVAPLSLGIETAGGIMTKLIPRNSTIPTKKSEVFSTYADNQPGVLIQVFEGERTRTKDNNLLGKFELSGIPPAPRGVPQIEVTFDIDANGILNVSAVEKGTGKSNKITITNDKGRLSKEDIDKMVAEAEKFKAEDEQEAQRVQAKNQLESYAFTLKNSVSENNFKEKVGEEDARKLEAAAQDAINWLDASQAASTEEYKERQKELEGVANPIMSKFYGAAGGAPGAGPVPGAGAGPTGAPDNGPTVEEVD
UniProt P21951: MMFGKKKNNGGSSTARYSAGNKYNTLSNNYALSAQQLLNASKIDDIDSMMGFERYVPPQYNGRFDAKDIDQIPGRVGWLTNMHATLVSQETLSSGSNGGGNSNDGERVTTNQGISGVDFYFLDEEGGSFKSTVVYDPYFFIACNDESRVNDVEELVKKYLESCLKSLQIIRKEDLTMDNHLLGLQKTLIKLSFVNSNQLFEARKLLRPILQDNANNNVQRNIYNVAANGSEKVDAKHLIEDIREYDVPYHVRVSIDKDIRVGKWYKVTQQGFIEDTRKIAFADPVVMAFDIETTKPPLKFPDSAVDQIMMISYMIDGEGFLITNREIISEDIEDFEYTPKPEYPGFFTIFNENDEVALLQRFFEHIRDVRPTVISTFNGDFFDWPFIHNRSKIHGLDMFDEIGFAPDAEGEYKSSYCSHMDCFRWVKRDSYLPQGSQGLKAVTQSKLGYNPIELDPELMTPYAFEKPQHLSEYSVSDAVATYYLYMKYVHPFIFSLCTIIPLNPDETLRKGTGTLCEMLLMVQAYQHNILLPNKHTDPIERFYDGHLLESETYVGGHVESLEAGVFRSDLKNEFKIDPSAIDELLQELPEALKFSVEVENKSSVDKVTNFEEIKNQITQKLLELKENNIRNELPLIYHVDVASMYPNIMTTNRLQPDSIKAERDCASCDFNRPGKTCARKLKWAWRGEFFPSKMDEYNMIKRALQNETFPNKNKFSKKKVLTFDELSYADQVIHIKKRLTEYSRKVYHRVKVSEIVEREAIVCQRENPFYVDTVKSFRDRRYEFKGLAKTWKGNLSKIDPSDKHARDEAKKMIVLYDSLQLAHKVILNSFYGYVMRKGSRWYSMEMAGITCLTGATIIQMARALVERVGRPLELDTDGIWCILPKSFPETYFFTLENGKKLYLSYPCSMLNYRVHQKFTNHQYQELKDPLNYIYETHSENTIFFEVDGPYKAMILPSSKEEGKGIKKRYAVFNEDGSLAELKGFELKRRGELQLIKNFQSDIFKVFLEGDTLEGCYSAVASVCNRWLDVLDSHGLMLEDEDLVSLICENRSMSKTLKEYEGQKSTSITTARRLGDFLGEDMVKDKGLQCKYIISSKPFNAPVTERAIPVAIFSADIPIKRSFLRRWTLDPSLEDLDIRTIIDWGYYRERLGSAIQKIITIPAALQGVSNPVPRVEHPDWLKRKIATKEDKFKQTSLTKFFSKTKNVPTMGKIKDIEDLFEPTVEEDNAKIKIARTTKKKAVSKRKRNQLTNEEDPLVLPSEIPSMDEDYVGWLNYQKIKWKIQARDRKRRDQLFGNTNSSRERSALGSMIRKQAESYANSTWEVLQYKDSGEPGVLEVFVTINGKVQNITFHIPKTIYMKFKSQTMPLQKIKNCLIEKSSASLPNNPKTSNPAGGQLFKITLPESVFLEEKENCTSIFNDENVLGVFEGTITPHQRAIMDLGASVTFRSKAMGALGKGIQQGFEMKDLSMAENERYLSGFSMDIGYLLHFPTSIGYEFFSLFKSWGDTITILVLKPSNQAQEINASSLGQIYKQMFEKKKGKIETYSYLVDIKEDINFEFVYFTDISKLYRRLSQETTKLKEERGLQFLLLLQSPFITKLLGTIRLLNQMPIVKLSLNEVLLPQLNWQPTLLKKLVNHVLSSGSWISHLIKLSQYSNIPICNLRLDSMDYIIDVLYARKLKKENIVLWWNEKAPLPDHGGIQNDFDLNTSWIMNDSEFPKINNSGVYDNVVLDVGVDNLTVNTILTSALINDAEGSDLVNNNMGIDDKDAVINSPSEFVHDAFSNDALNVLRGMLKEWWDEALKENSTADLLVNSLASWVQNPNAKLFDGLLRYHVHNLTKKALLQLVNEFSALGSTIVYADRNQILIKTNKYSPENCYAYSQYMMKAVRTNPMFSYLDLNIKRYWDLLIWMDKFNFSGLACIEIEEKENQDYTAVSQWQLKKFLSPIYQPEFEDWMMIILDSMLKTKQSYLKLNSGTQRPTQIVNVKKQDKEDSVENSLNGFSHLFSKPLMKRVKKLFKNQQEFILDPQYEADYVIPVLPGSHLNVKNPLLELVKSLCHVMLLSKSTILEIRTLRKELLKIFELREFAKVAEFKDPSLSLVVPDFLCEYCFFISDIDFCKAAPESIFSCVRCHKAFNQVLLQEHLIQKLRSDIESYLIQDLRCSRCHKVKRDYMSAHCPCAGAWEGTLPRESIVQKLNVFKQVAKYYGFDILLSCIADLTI
UniProt P53091: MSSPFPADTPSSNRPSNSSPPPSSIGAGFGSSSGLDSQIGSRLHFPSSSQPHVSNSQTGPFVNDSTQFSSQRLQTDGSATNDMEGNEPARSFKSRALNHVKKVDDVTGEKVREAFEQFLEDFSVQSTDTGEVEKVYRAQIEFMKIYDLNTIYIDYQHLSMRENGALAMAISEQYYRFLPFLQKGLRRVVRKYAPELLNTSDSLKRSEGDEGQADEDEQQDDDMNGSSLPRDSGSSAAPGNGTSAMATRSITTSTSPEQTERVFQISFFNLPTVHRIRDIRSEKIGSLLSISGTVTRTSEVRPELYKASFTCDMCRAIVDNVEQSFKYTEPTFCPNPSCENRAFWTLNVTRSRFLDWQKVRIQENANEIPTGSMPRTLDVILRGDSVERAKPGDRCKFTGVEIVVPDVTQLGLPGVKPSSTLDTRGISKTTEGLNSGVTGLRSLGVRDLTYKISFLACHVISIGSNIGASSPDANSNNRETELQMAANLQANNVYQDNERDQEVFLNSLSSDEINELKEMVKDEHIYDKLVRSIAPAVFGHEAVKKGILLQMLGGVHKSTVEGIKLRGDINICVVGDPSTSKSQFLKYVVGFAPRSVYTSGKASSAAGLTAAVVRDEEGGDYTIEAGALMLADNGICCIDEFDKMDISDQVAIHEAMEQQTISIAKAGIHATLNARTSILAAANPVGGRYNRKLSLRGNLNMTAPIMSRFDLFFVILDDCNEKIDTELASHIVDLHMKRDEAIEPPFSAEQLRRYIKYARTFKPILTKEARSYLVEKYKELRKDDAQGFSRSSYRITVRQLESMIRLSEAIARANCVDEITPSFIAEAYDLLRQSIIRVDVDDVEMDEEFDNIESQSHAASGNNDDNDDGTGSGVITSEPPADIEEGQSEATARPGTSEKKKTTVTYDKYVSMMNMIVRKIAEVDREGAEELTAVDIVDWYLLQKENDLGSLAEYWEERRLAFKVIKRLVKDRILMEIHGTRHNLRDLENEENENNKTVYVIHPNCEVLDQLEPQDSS
UniProt P22216: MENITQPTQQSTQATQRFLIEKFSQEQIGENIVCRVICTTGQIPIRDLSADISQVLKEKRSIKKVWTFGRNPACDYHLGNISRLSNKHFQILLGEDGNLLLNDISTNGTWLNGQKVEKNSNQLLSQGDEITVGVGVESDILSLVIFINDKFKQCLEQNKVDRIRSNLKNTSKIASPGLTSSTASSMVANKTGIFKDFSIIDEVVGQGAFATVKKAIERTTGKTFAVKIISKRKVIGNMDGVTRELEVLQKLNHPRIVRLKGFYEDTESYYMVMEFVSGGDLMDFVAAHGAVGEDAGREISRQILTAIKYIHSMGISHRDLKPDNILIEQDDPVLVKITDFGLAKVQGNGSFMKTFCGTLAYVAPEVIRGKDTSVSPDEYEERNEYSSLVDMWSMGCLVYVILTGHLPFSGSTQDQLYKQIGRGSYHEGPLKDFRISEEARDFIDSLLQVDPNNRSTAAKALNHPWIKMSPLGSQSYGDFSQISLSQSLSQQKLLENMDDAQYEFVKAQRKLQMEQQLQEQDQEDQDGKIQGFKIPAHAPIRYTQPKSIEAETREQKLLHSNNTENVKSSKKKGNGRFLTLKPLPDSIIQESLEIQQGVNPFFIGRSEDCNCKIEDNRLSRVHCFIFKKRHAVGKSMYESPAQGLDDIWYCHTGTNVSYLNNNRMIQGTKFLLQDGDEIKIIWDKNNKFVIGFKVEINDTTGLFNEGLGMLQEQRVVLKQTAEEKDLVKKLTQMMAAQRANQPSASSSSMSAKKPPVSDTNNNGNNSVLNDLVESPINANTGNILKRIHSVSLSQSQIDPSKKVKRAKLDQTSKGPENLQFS
UniProt P43588: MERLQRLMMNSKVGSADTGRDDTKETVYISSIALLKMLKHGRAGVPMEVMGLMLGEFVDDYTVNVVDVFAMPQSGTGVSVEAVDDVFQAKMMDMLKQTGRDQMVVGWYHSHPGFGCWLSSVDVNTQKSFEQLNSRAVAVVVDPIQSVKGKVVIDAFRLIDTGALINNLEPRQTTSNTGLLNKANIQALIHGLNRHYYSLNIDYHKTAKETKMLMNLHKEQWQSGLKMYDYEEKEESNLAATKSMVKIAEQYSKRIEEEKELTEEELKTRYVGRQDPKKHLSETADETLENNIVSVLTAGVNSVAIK
UniProt P24279: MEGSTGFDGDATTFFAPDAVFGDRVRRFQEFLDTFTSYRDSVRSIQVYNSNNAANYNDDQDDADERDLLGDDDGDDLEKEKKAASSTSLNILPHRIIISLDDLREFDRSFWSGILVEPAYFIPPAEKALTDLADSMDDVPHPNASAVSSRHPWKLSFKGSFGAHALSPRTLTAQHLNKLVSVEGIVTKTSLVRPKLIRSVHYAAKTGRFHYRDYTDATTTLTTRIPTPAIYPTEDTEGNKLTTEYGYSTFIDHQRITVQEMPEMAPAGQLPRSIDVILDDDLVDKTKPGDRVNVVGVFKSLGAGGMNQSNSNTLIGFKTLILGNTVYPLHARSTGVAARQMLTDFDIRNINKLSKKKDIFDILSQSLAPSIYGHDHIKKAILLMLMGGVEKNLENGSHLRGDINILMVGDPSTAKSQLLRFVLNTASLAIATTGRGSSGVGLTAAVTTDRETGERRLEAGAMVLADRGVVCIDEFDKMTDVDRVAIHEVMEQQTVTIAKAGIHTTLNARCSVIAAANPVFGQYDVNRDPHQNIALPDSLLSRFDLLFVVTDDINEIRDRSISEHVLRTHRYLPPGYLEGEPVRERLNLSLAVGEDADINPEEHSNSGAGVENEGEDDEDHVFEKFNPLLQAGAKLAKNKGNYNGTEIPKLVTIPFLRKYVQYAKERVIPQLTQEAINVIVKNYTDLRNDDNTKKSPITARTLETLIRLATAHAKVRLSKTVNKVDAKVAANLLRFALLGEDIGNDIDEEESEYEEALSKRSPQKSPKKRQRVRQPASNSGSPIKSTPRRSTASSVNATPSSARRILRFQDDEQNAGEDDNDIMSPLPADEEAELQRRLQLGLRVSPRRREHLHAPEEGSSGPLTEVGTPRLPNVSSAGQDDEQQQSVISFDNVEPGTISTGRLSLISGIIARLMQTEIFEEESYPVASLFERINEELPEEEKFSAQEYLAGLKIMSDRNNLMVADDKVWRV
UniProt P52286: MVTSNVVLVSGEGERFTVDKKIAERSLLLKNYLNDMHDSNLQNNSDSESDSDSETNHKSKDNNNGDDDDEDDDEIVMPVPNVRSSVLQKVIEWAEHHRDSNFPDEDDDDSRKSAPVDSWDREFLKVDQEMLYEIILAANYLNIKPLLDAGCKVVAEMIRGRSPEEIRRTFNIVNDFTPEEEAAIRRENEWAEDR
UniProt P25491: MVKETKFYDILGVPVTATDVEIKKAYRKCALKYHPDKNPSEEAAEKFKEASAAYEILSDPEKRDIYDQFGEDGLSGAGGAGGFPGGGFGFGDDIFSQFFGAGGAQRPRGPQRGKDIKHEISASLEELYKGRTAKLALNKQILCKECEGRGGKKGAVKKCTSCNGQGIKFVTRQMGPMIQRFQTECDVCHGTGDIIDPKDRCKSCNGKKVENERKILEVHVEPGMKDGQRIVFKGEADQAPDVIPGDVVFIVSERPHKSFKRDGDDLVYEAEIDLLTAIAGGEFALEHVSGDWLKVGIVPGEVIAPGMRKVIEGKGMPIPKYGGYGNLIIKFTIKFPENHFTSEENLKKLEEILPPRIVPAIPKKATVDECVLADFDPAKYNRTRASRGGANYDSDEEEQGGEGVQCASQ

B1: Cdc45 (protein, UniProt Q08032 1-650)
chain: MYYGISQFSEAYNKILRNSSSHSSCQLVIFVSCLNIDALCATKMLSLLFKKQLVQSQIVPIFGYSELRRHYSQLDDNINSLLLVGFGGVIDLEAFLEIDPQEYVIDTDEKSGEQSFRRDIYVLDAHRPWNLDNIFGSQIIQCFDDGTVDDTLGEQKEAYYKLLELDEESGDDELSGDENDNNGGDDEATDADEVTDEDEEDEDETISNKRGNSSIGPNDLSKRKQRKKQIHEYEGVLEEYYSQGTTVVNSISAQIYSLLSAIGETNLSNLWLNILGTTSLDIAYAQVYNRLYPLLQDEVKRLTPSSRNSVKTPDTLTLNIQPDYYLFLLRHSSLYDSFYYSNYVNAKLSLWNENGKKRLHKMFARMGIPLSTAQETWLYMDHSIKRELGIIFDKNLDRYGLQDIIRDGFVRTLGYRGSISASEFVEALTALLEVGNSTDKDSVKINNDNNDDTDGEEEEDNSAQKLTNLRKRWVSNFWLSWDALDDRKVELLNRGIQLAQDLQRAIFNTGVAILEKKLIKHLRIYRLCVLQDGPDLDLYRNPLTLLRLGNWLIECCAESEDKQLLPMVLASIDENTDTYLVAGLTPRYPRGLDTIHTKKPILNNFSMAFQQITAETDAKVRIDNFESSIIEIRREDLSPFLEKLTLSGLL
B2: Psf2 (protein, UniProt P40359 1-213)
chain: MSLPAHLQQTFSPEEIQFIVENEPIKIFPRITTRQKIRGDDRGTGNHTRWQLITTDDKALNNMVAMRSTEVVLWIALLLKQQSKCSIVAPQWLTTKELDRKIQYEKTHPDRFSELPWNWLVLARILFNKAKDDFHDPIHELRGKIQDLREIRQIKVLKGLKYLNESHLQLDNLSLLEINELRPFITEIMDKLREIHTASLTAGTENDEEEFNI
B3: Psf3 (protein, UniProt Q12146 1-194)
chain: MGYYDIDDVLADGTEFPCKFQYDIPGLGYLENNPGRPITKNTKLSLPLWLARILAIVGGDEALVDEEPVPFVELLPPDMFSTKVMNAIKTDPVALDLHSINSHFFSLAIKWIMLFSEKELANVVSELLLQRAQELNHHASSLSIDLNADSTGKNSANTNIATSTFLLKLEEMEKEIYKKSHESYKDTKRWMFKK
B4: Csm3 (protein, UniProt Q04659 1-317)
chain: MDQDFDSLLLGFNDSDSVQKDPTVPNGLDGSVVDPTIADPTAITARKRRPQVKLTAEKLLSDKGLPYVLKNAHKRIRISSKKNSYDNLSNIIQFYQLWAHELFPKAKFKDFMKICQTVGKTDPVLREYRVSLFRDEMGMSFDVGTRETGQDLERQSPMVEEHVTSAEERPIVADSFAQDKRNVNNVDYDNDEDDDIYHLSYRNRRGRVLDERGNNETVLNNVVPPKEDLDALLKTFRVQGPVGLEENEKKLLLGWLDAHRKMEKGSMTEEDVQLIQSLEEWEMNDIEGQHTHYDLLPGGDEFGVDQDELDAMKEMGF
B5: Tof1 (protein, UniProt P53840 1-1238)
chain: MSADLQQGTTNAADFSLTVLRARIALLATAIGGPDYTSQIDPPPYKLGDDCLACLKDLKRWFKLVDDQQKRWDVAMAVAEYRILTDDLLPILIDWENKCSLAAKLAKNNPDHEEFRNKAYYDKIALNCLQLLVLMTWPLIVTEQSSSNQITLYGELKKHQLVYKKTILSMESGKVLRAAIRLALDVIKIDRLSRTPRDNMVLKLVLNFFRNVIAIEPGEFTINTKKSMPKKGITSIDTLPPNVSMDDISLNTVISSFHKNKVFGFLLTLTSSLSKEFDQDFINIPLLEIMFYFTKDVNQELLFPRQFETGTHSKVVNKNESSSANNIVTSAGFELSKLLQKEHQMRKNVIKHTSARHSRFGGLLSIQTPDKTRLTVSGSQALVDEKIALQKLDDSKKWNKRIIKKHQSVAAEGLPNSLLNSQTGKAIFFTESNGKHFKEFINNFIDSGFNILLHSVTNYFTTEQDRMVTLEQVEYLLFFAWFVKYQLLRSKIDNSADIKQVSEALKEVTFILVSSLLRSAYDLKNWTVTHAGMIAFNELLNLVSRTKAAQEEDSTDIEFIVSRLFSDERIQLLSNLPKIGSKYSLQFMKSCIELTHSVLKVLEQYSDDKTLVIEGKSRRQKKFNISEGDITKLIEEENVDRDEALDILTSSLRSIEVNFQKVQANYMTEPVIETYINFLERFRELEDDSIKKVFSFFHRVFVQAKEQALLFRFDLIILLREMLSPDGLDRMSRSRKYVSQFSDYFLARLKKRLKKSPAWFVGLLFPPLHNSEVGFYQRYGEYNVLNNESMYAAPASQFKPIPDEEALPPSILLDMKYGVLVSTLLDDGKTELLDQLLKHITHTLDIFKSWLTVNVNAGKETVNPPNEYFTLTGVLNNDPIFKDKDYRALLLLIGYSIPRKINEPCFLPGTVEVSDLTVSCELVKKYLSTPFETPNGLPSSSYLLRVRSEKDSFSHNEQDGWEGDDDYDYNDPYIVPDDQILSKSDAAYFKDLDNNASDKLKGTKFSKGIARSKKKDKRKRRKGEAKTNLPMFGDQDDERPQTVRERHGVFSKEFISDSEDDEDLMNPIFFENETYMRWLLDKNNGQLTEDRYIQFAKFAAERMNNGGVVTGDYTSLFGGSIPSIESIRATESSSFAPDKSLISLASHVASEMSIFDVNNNNNNQLSDDDVNSESRNSLGSSQPSNSQNMFQSEVYSRKESTKRSLEASAADESDEDEEAIRLFGKKSRVVLSQGDSDD
B6: Ctf4 (protein, UniProt Q01454 1-927)
chain: MVSVIDKLVFDFGGKTLVSLAPDNNTLCVANKNGLTKILKTNNPEEEPETLDSSKLVSSIKCYSNSHFLMTTMQGDALRYNIDSSQEELLARFALPLRDCCVIHSGKMAVFGGDDLELILLELDDETHKKHAIKIDEQVSQISYNSQMNILAVSMINGKVQIFSLTSTIPNKVHELNDYIVANSYDDTHRDKILSNMMDDIDKDNDNDLSETADPDENNVADPEFCAANRICTRVAWHPKGLHFALPCADDTVKIFSIKGYSLQKTLSTNLSSTKAHFIDLQFDPLRGTYIAAVDLNNKLTVWNWETSEIHYTREFKRKITNIAWKIQADSKTLDLVLGTWSGSIAIVQNLAESVVSNIPDQSVAESSTKHGLFVDSESDLENLEGNDDINKSDKLFSDITQEANAEDVFTQTHDGPSGLSEKRKYNFEDEEDFIDDDDGAGYISGKKPHNEHSYSRVHKTHSFPISLANTGKFRYMPFSPAGTPFGFTDRRYLTMNEVGYVSTVKNSEQYSITVSFFDVGRFREYHFEDLFGYDLCFLNEKGTLFGQSKTGQIQYRPHDSIHSNWTKIIPLQAGERITSVAATPVRVIVGTSLGYFRSFNQFGVPFAVEKTSPIVALTAQNYRVFSVHYSQFHGLSYSLSELGTSSKRYYKRECPLPMSLPNINSDMKKDANLDYYNFNPMGIKSLFFSSYGDPCIFGSDNTLLLLSKWRSPEESKWLPILDSNMEIWKMSGGKETTDIHVWPLALAYDTLNCILVKGKHIWPEFPLPLPSEMEIRMPVFVKSKLLEENKAILNKKNEIGADTEAEEGEEDKEIQIPVSMAAEEEYLRSKVLSELLTDTLENDGEMYGNENEVLAALNGAYDKALLRLFASACSDQNVEKALSLAHELKQDRALTAAVKISERAELPSLVKKINNIREARYEQQLK
B7: Pri1 (protein, UniProt P10363 1-409)
chain: MTNSVKTNGPSSSDMEYYYKSLYPFKHIFNWLNHSPKPSRDMINREFAMAFRSGAYKRYNSFNSVQDFKAQIEKANPDRFEIGAIYNKPPRERDTLLKSELKALEKELVFDIDMDDYDAFRTCCSGAQVCSKCWKFISLAMKITNTALREDFGYKDFIWVFSGRRGAHCWVSDKRARALTDVQRRNVLDYVNVIRDRNTDKRLALKRPYHPHLARSLEQLKPFFVSIMLEEQNPWEDDQHAIQTLLPALYDKQLIDSLKKYWLDNPRRSSKEKWNDIDQIATSLFKGPKQDSHIIKLRECKEDLVLMTLYPKLDVEVTKQTIHLLKAPFCIHPATGNVCVPIDESFAPEKAPKLIDLQTEMEKNNDVSLTALQPFINQFQAYVSSLLKNELGSVKREREDDDEPASLDF

Molecular target: T1, Mrc1-YFP (S. cerevisiae) (UniProt P25588)
T1 sequence: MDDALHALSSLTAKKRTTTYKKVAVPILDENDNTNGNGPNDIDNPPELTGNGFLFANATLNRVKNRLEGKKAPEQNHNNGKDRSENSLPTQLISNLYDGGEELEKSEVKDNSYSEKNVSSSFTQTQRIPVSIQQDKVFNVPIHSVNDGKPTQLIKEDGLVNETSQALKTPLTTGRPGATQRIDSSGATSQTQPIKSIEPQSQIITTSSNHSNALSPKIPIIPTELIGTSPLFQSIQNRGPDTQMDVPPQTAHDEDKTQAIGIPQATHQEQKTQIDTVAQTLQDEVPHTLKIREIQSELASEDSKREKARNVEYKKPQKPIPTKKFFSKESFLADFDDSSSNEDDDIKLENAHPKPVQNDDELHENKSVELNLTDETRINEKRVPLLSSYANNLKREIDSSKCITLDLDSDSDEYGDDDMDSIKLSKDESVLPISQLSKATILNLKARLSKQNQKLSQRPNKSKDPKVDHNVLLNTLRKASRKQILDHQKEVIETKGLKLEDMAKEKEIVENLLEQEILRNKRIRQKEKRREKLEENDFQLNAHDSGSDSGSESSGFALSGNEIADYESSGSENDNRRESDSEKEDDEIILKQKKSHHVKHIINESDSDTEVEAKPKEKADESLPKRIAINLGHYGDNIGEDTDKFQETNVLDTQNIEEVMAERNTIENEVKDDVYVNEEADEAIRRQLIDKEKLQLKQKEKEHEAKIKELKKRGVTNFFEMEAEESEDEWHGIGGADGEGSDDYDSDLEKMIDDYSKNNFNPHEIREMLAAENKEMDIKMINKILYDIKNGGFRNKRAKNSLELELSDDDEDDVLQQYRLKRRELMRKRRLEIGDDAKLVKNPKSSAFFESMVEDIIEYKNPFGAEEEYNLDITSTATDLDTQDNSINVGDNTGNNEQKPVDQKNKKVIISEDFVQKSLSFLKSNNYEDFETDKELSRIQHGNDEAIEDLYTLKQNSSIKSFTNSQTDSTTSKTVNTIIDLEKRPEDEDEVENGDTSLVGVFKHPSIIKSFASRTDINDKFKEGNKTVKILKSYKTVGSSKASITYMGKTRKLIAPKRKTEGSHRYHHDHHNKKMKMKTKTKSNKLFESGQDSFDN
Assay: affinity purification with mass spectrometry

binding, binds:
Cdc48 (from UniProt P25694 1-835), Mcd1 (from UniProt Q12158 1-566), Ssa4 (from UniProt P22202 1-642), Pol2 (from UniProt P21951 1-2222), Hsp42 (from UniProt Q12329 1-375), Mcm6 (from UniProt P53091 1-1017), Mcm2 (from UniProt P29469 1-868), Sen1 (from UniProt Q00416 1-2231), Smc3 (from UniProt P47037 1-1230), PCNA (Pol30) (from UniProt P15873 1-258), Rad53 (from UniProt P22216 1-821), Rpn11 (from UniProt P43588 1-306), Mcm3 (from UniProt P24279 1-971), Skp1 (from UniProt P52286 1-194), Cka1 (from UniProt P15790 1-372), Ydj1 (from UniProt P25491 1-409), B1, B2, B3, B4, B5, B6, B7
